Test results from patent US10016409B2, “Method for improving interstitial flow” (priority 2012, dated 2018).

System: Tg-SwDI mice
Experiment: Cerebral artery reactivity to CO2 supply (vascular pulsation driving force) in Tg-SwDI mice
Assay type: in vivo
Conditions: average±standard error, no difference vs ordinary feed, p>0.10
From the text: In brain interstitial flow in a central nervous system, vascular wall motion caused by vascular pulsation of artery serves as a driving force so that harmful proteins are excreted (see Mechanisms to explain the reverse perivascular transport of solutes out of the brain. J Theor Biol. 2006 Feb. 21; 238(4): 962-74), Dilation of artery in vascular pulsation is caused by an increased blood pressure in artery due to pulsation of heart, and a decrease in dilation ability of artery attenuates vascular wall motion, and also reduces the interstitial flow. […] The degree of vascular elasticity in cerebral artery can be evaluated by using reactivity with a change in the concentration of blood carbon dioxide. Specifically, cerebral artery whose vascular elasticity and vascular pulsation driving force are maintained, has the ability of sufficiently dilating the vessel diameter afer an increase in the concentration of blood carbon dioxide, and maintains excretion ability for harmful proteins through h interstitial flow. On the other hand, cerebral artery whose vascular elasticity and vascular pulsation driving force are decreased, loses the ability of sufficiently dilating the vessel diameter in response to an increase in the concentration of blood carbon dioxide, and has its escretion ability for harmful proteins impaired. […]

**Q.** For `O=C1CCc2cc(OCCCCc3nnnn3C3CCCCC3)ccc2N1` [cilostazol, 6-[4-(1-cyclohexyl-1H-tetrazole-5-yl)butoxy]3,4-dihydrocarbostyril], which “cerebral artery diameter in the AIR supply” value (AIR group (no CO2), cilostazol-containing feed 0.3 wt % for 13.5 months, age 15 months) is on record?
**A.** 18.9±1.10 μm

**Q.** What about the “cerebral artery diameter before the CO2 supply” value (cilostazol-containing feed for 8 months, age 4 to 12 months) of the same compound?
**A.** 21.3±3.85 μm
